From the supplement of paper PMC10331698
± gives the standard deviation of the averaged measurements. Most values lie at the level of the controls, where differences are scatter.

Tests used:
Experiment in all cases: level (log10 ratio to DMSO vehicle control); higher = higher biomarker level / cell amount than vehicle control
[1] = compound: O=C(O)C(F)(F)C(F)(F)C(F)(F)C(F)(F)C(F)(F)C(F)(F)C(F)(F)C(F)(F)Cl [9-Chloro-perfluorononanoic acid]; settings: in DMSO
Procedure: (§1)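 BioMAP Diversity Plus panel of 12 human primary cell co-culture systems (3C, 4H, LPS, SAg, BT, BF4T, BE3C, CASM3C, HDF3CGF, KF3CT, MyoF, Mphg). Compounds were added 1 h before stimulation and left for 24 h (MyoF 48 h; BT 72 h for soluble read-outs or 6 d for IgG). Biomarkers were read by ELISA, cytotoxicity by SRB, PBMC viability and proliferation by Alamar Blue. Each well value was divided by the mean of 8 DMSO control wells on the same plate and log10 transformed; duplicate blinded samples were tested at 4 concentrations.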

Nonafluoropentanamide = compound: NC(=O)C(F)(F)C(F)(F)C(F)(F)C(F)(F)F [Nonafluoropentanamide]; settings: 2200 nM; in DMSO
Procedure: as §1

Tetrafluorosuccinic acid = compound: O=C(O)C(F)(F)C(F)(F)C(=O)O [Tetrafluorosuccinic acid]; settings: 2200 nM; in DMSO
Procedure: as §1

[2] = compound: OCCC(F)(F)C(F)(F)C(F)(F)C(F)(F)F [4:2 Fluorotelomer alcohol]; settings: 2200 nM; in DMSO
Procedure: as §1

[3] = compound: O=S(=O)(O)C(F)(F)C(F)(F)OC(F)(F)C(F)(F)F [Perfluoro(2-ethoxyethane)sulfonic acid]; settings: 2200 nM; in DMSO
Procedure: as §1

[4] = compound: C=C(C)C(=O)OCCC(F)(F)C(F)(F)C(F)(F)C(F)(F)C(F)(C(F)(F)F)C(F)(F)F [(Perfluoro-5-methylhexyl)ethyl 2-methylprop-2-enoate]; settings: in DMSO
Procedure: as §1

[5] = compound: C=C(C)C(=O)OCCC(F)(F)C(F)(F)C(F)(F)C(F)(F)C(F)(F)C(F)(F)C(F)(F)C(F)(F)F [8:2 Fluorotelomer methacrylate]; settings: in DMSO
Procedure: as §1

Octafluoroadipamide = compound: NC(=O)C(F)(F)C(F)(F)C(F)(F)C(F)(F)C(N)=O [Octafluoroadipamide]; settings: 2200 nM; in DMSO
Procedure: as §1

[6] = compound: FC(F)(F)C(F)(F)C(F)(F)C(F)(F)C(F)(F)CCI [1-Iodo-1H,1H,2H,2H-perfluoroheptane]; settings: 2200 nM; in DMSO
Procedure: as §1

[7] = compound: O=S(=O)(O)CCC(F)(F)C(F)(F)C(F)(F)C(F)(F)C(F)(F)C(F)(F)F [6:2 Fluorotelomer sulfonic acid]; settings: in DMSO
Procedure: as §1

[8] = compound: COC(=O)CCC(F)(F)C(F)(F)C(F)(F)C(F)(F)F [Methyl 2H,2H,3H,3H-perfluoroheptanoate]; settings: 2200 nM; in DMSO
Procedure: as §1

[9] = compound: NS(=O)(=O)C(F)(F)C(F)(F)C(F)(F)C(F)(F)C(F)(F)C(F)(F)F [Perfluorohexanesulfonamide]; settings: 2200 nM; in DMSO
Procedure: as §1

[10] = compound: O=C(O)CCC(F)(F)C(F)(F)C(F)(F)C(F)(F)C(F)(F)F [2H,2H,3H,3H-Perfluorooctanoic acid]; settings: 2200 nM; in DMSO
Procedure: as §1

Perfluoropinacol = compound: OC(C(F)(F)F)(C(F)(F)F)C(O)(C(F)(F)F)C(F)(F)F [Perfluoropinacol]; settings: in DMSO
Procedure: as §1

CASM3C:CD142/Tissue Factor
level (log10) ([1]; 2200 nM): 0.004 ± 0.0071 | level (log10) ([1]; 6700 nM): -0.017 ± 0.011 | level (log10) ([1]; 20000 nM): 0.0055 ± 0.0064 | level (log10) (Nonafluoropentanamide): -0.034 ± 0.086 | level (log10) (Tetrafluorosuccinic acid): -0.023 ± 0.016 | level (log10) [2]: 0.025 ± 0.025 | level (log10) [3]: 0.005 ± 0.055 | level (log10) ([4]; 740 nM): -0.041 ± 0.0028 | level (log10) ([4]; 2200 nM): -0.051 ± 0.017 | level (log10) ([4]; 6700 nM): -0.037 ± 0.024 | level (log10) ([4]; 20000 nM): -0.0265 ± 0.056 | level (log10) ([5]; 740 nM): -0.0025 ± 0.021 | level (log10) ([5]; 2200 nM): -0.0255 ± 0.029 | level (log10) (Octafluoroadipamide): -0.029 ± 0.04 | level (log10) [6]: -0.007 ± 0.017 | level (log10) ([7]; 2200 nM): 0.009 ± 0.048 | level (log10) ([7]; 6700 nM): -0.01 ± 0.013 | level (log10) ([7]; 20000 nM): -0.0345 ± 0.021 | level (log10) ([7]; 60000 nM): 0.007 ± 0.02 | level (log10) [8]: -0.022 ± 0.016 | level (log10) [9]: -0.0205 ± 0.0092 | level (log10) [10]: -0.012 ± 0.014 | level (log10) (Perfluoropinacol; 2200 nM): -0.0375 ± 0.018 | level (log10) (Perfluoropinacol; 6700 nM): -0.0515 ± 0.022 | level (log10) (Perfluoropinacol; 20000 nM): -0.0235 ± 0.06

LPS:sTNF-alpha
level (log10) ([1]; 2200 nM): -0.0155 ± 0.022 | level (log10) ([1]; 6700 nM): -0.0115 ± 0.0078 | level (log10) ([1]; 20000 nM): -0.004 ± 0.014 | level (log10) (Nonafluoropentanamide): 0.0115 ± 0.032 | level (log10) (Tetrafluorosuccinic acid): -0.002 ± 0.011 | level (log10) [2]: 0.016 ± 0.057 | level (log10) [3]: 0.0015 ± 0.0064 | level (log10) ([4]; 740 nM): -0.014 ± 0.055 | level (log10) ([4]; 2200 nM): 0.006 ± 0.0099 | level (log10) ([4]; 6700 nM): 0.0265 ± 0.04 | level (log10) ([4]; 20000 nM): 0.0345 ± 0.063 | level (log10) ([5]; 740 nM): -0.0165 ± 0.0021 | level (log10) ([5]; 2200 nM): 0.006 ± 0.0014 | level (log10) (Octafluoroadipamide): 0.053 ± 0.024 | level (log10) [6]: 0.0015 ± 0.044 | level (log10) ([7]; 2200 nM): -0.01 ± 0.0099 | level (log10) ([7]; 6700 nM): -0.002 ± 0.0042 | level (log10) ([7]; 20000 nM): 0 ± 0.0057 | level (log10) ([7]; 60000 nM): 0.0015 ± 0.0092 | level (log10) [8]: 0.0245 ± 0.035 | level (log10) [9]: -0.046 ± 0.0071 | level (log10) [10]: -0.016 ± 0.013 | level (log10) (Perfluoropinacol; 2200 nM): 0.0085 ± 0.013 | level (log10) (Perfluoropinacol; 6700 nM): -0.0005 ± 0.025 | level (log10) (Perfluoropinacol; 20000 nM): 0.008 ± 0.03

lMphg:sIL-10
level (log10) ([1]; 2200 nM): 0.0345 ± 0.012 | level (log10) ([1]; 6700 nM): 0.0205 ± 0.0078 | level (log10) ([1]; 20000 nM): -0.015 ± 0.0085 | level (log10) (Nonafluoropentanamide): 0.028 ± 0.096 | level (log10) (Tetrafluorosuccinic acid): -0.0465 ± 0.013 | level (log10) [2]: -0.0255 ± 0.023 | level (log10) [3]: -0.0095 ± 0.0021 | level (log10) ([4]; 740 nM): 0.0105 ± 0.06 | level (log10) ([4]; 2200 nM): 0.047 ± 0.02 | level (log10) ([4]; 6700 nM): 0.0215 ± 0.029 | level (log10) ([4]; 20000 nM): -0.0195 ± 0.12 | level (log10) ([5]; 740 nM): -0.0485 ± 0.054 | level (log10) ([5]; 2200 nM): -0.034 ± 0.024 | level (log10) (Octafluoroadipamide): -0.0515 ± 0.029 | level (log10) [6]: 0.0345 ± 0.047 | level (log10) ([7]; 2200 nM): 0.0045 ± 0.04 | level (log10) ([7]; 6700 nM): -0.025 ± 0.037 | level (log10) ([7]; 20000 nM): -0.015 ± 0.02 | level (log10) ([7]; 60000 nM): -0.049 ± 0.0057 | level (log10) [8]: -0.0045 ± 0.021 | level (log10) [9]: 0.0115 ± 0.016 | level (log10) [10]: -0.0335 ± 0.069 | level (log10) (Perfluoropinacol; 2200 nM): 0.0645 ± 0.005 | level (log10) (Perfluoropinacol; 6700 nM): 0.031 ± 0.017 | level (log10) (Perfluoropinacol; 20000 nM): -0.498 ± 0.24

BF4T:MMP-1
level (log10) ([1]; 2200 nM): -0.023 ± 0.021 | level (log10) ([1]; 6700 nM): -0.0115 ± 0.0078 | level (log10) ([1]; 20000 nM): 0.0245 ± 0.0064 | level (log10) (Nonafluoropentanamide): 0.0025 ± 0.0078 | level (log10) (Tetrafluorosuccinic acid): 0.0185 ± 0.039 | level (log10) [2]: 0.004 ± 0.016 | level (log10) [3]: 0.003 ± 0.011 | level (log10) ([4]; 740 nM): -0.0205 ± 0.005 | level (log10) ([4]; 2200 nM): -0.0125 ± 0.0035 | level (log10) ([4]; 6700 nM): -0.0205 ± 0.0021 | level (log10) ([4]; 20000 nM): -0.0095 ± 0.0021 | level (log10) ([5]; 740 nM): 0 ± 0.018 | level (log10) ([5]; 2200 nM): 0.002 ± 0.0042 | level (log10) (Octafluoroadipamide): 0.006 ± 0.027 | level (log10) [6]: -0.0015 ± 0.00071 | level (log10) ([7]; 2200 nM): 0.0015 ± 0.019 | level (log10) ([7]; 6700 nM): -0.0085 ± 0.00071 | level (log10) ([7]; 20000 nM): -0.0125 ± 0.0078 | level (log10) ([7]; 60000 nM): 0.0065 ± 0.013 | level (log10) [8]: 0.004 ± 0.02 | level (log10) [9]: -0.005 ± 0.0028 | level (log10) [10]: -0.0005 ± 0.012 | level (log10) (Perfluoropinacol; 2200 nM): -0.0045 ± 0.00071 | level (log10) (Perfluoropinacol; 6700 nM): -0.0245 ± 0.00071 | level (log10) (Perfluoropinacol; 20000 nM): -0.0165 ± 0.0035

BT:sIL-2
level (log10) ([1]; 2200 nM): -0.0595 ± 0.015 | level (log10) ([1]; 6700 nM): -0.0175 ± 0.066 | level (log10) ([1]; 20000 nM): -0.0565 ± 0.1 | level (log10) (Nonafluoropentanamide): 0.0555 ± 0.037 | level (log10) (Tetrafluorosuccinic acid): 0.0095 ± 0.035 | level (log10) [2]: -0.001 ± 0.086 | level (log10) [3]: 0.051 ± 0.0085 | level (log10) ([4]; 740 nM): -0.032 ± 0.051 | level (log10) ([4]; 2200 nM): -0.0355 ± 0.04 | level (log10) ([4]; 6700 nM): -0.0185 ± 0.025 | level (log10) ([4]; 20000 nM): -0.0245 ± 0.039 | level (log10) ([5]; 740 nM): 0.007 ± 0.081 | level (log10) ([5]; 2200 nM): -0.0075 ± 0.049 | level (log10) (Octafluoroadipamide): 0.115 ± 0.11 | level (log10) [6]: 0.029 ± 0.0057 | level (log10) ([7]; 2200 nM): 0.0125 ± 0.023 | level (log10) ([7]; 6700 nM): -0.0555 ± 0.011 | level (log10) ([7]; 20000 nM): 0.0325 ± 0.018 | level (log10) ([7]; 60000 nM): -0.01 ± 0.031 | level (log10) [8]: 0.045 ± 0.035 | level (log10) [9]: 0.025 ± 0.0042 | level (log10) [10]: 0.064 ± 0.035 | level (log10) (Perfluoropinacol; 2200 nM): 0.111 ± 0.087 | level (log10) (Perfluoropinacol; 6700 nM): 0.107 ± 0.059 | level (log10) (Perfluoropinacol; 20000 nM): 0.0335 ± 0.071
